# From paper PMC5967306
# Protein sequences, listed by entry. Tags and fused reporters are not part of them. Lines headed by an entry give the natural chain unless they say otherwise; changes in a name come on top.
# UniProt Q4G0A6: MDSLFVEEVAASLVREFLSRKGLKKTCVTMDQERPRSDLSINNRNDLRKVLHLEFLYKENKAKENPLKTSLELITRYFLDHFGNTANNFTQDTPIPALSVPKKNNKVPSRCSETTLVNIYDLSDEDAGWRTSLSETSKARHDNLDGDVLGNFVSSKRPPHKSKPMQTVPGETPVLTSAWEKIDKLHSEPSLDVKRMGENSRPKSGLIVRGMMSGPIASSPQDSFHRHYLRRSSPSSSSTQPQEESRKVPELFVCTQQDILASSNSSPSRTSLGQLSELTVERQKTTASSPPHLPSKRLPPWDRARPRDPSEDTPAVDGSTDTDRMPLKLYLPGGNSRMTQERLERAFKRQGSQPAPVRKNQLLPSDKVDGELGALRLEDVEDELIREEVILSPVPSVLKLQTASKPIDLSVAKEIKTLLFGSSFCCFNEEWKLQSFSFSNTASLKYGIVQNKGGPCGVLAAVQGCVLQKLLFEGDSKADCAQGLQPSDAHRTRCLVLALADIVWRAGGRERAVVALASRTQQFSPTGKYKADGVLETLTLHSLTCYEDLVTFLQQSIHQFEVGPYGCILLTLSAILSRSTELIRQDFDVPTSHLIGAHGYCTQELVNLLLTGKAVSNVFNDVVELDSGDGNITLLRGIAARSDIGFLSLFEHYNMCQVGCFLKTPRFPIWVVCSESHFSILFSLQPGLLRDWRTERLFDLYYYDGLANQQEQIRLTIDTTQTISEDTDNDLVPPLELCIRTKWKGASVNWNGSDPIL
# No constants are given. Whether binding was seen depends on the method and setting. In cells and extracts the contact can be indirect. A result given as binding can be weak or reduced; the word gives no strength.
# Molecular target: FLAG-tagged mutant FAM188B with deletion of USP7-binding motif-2 (human) (UniProt Q4G0A6)
# Test: co-IP; FLAG-tagged wild-type or deletion-mutant FAM188B overexpressed in HCT-116 cells, immunoprecipitated with anti-FLAG antibodies, blotted for USP7
substance,measurement,value
USP7 (from UniProt Q93009 1-1102) (enzyme),binding,binds
